The text below walks through data of paper PMC5996148.

Holding throughout (assay): protein microarray (ProtoArray v5.0), streptavidin-Alexa Fluor 647
Holding throughout (conditions): 3'-biotin; 20 mM Tris (pH 7.5), 5 mM MgCl2, 100 mM KCl, 0.1% Tween-20, A/T-rich and random oligonucleotide blockers; temperature not stated; high values mean tight binding

The test system of assay [1] is LOC554203 (human).
Assay [2] has as its system LOC554207 (human).
Assay [3] deals with LOC57228 (human).
The subject of assay [4] is LOXL2 (human).
In assay [5] the test system is LPXN (human).
The subject of assay [6] is LRRC14 (human).
The subject of assay [7] is LRRC48 (human).
The test system of assay [8] is LRRIQ2 (human).
The subject of assay [9] is LSM8 (human).
Assay [10] relates to LTB (human).
The test system of assay [11] is LXN (human).
For assay [12], the system named is LY6E (human).
Assay [13] has as its system LY6G6C (human).
Assay [14] has as its system LYPD1 (human).
Assay [15] deals with LYPLAL1 (human).
Assay [16] concerns LYSMD2 (human).
The test system of assay [17] is LYSMD3 (human).
Assay [18] deals with LYZL6 (human).
For assay [19], the system named is LZIC (human).
Assay [20] deals with Lactoylglutathione lyase (human).

Some of the results follow.

As for “GGTGACAGGGGTATGGGGAGGGG [G4-2 biotinylated (Ct1)]”, the binding signal was -0.398 z-score in assay [1]; -0.36 z-score in [2]; 5.81 z-score in assay [3]; -0.358 z-score in [4]; -0.391 z-score in assay [5]; -0.369 z-score in [6]. Moreover, the binding signal in [7] was -0.381 z-score; in assay [8], -0.386 z-score; in [9] it was -0.376 z-score; in assay [10], -0.385 z-score; in assay [11], -0.377 z-score; in assay [12], -0.371 z-score. The binding signal in assay [13] was -0.384 z-score; in assay [14], -0.37 z-score; in assay [15], -0.384 z-score; in [16], -0.394 z-score; in [17] it was -0.385 z-score; in [18], -0.382 z-score. In addition, the binding signal is -0.399 z-score in assay [19] and -0.374 z-score in [20].
